# In PMC3640961:
# Amino acid sequences for entries named in this document (tags omitted).
# UniProt P46109: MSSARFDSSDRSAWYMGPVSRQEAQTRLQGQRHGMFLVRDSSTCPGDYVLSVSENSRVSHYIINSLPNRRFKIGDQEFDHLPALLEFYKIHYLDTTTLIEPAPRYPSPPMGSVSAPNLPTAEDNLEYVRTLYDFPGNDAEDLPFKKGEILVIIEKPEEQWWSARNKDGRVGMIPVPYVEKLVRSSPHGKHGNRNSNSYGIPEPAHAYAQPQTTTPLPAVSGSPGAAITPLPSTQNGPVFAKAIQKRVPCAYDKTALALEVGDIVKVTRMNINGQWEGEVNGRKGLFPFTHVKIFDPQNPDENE
# UniProt P16949: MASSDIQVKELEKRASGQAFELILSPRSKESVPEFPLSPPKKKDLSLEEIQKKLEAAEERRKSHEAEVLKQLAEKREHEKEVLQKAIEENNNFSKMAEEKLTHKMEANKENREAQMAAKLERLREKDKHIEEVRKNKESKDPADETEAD
# UniProt P46108: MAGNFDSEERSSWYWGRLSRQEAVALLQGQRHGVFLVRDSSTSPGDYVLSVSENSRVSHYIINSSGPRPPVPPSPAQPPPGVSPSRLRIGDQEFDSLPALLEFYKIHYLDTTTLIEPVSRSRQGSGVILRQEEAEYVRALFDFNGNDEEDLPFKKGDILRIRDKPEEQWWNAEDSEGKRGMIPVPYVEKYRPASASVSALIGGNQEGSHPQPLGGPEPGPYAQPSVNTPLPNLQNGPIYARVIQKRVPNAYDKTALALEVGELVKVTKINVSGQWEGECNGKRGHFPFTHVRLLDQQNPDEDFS
# UniProt O00459: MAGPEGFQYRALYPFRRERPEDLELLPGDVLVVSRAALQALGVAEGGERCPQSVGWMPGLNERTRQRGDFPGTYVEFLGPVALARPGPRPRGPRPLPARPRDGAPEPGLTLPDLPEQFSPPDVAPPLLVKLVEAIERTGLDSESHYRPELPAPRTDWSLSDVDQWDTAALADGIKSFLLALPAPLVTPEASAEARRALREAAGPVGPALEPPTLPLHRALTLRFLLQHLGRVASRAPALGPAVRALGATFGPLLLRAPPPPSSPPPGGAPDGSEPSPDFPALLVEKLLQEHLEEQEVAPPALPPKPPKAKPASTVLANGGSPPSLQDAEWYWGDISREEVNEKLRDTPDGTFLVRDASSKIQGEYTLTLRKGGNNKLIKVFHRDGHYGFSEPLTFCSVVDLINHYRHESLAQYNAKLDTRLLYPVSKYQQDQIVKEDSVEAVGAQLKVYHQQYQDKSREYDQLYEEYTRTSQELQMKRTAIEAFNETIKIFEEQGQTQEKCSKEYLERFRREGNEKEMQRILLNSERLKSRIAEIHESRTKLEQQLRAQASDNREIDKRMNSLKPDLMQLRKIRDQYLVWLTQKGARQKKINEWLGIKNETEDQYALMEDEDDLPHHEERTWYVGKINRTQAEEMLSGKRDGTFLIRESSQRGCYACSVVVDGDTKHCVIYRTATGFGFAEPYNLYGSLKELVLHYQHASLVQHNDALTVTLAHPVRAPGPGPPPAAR
# Like-named read-outs stand apart in the source and are kept apart here. No constants are given. Whether binding was seen depends on the method and setting. Binding seen in cells or lysates may run through a third protein. A yes stands for co-enrichment or nearness to the bait. Other partners may have been found.
# Tests used:
# [1] = molecular target: haemagglutinin (HA)-tagged human Gab2 (human) (UniProt Q9UQC2)
# [2] = molecular target: haemagglutinin (HA)-tagged human Gab2 (human) (UniProt Q9UQC2); remark: listed apart in the source
# [3] = molecular target: haemagglutinin (HA)-tagged human Gab2 (human) (UniProt Q9UQC2); remark: listed apart in the source
# [4] = molecular target: haemagglutinin (HA)-tagged human Gab2 (human) (UniProt Q9UQC2); remark: listed apart in the source
# [5] = molecular target: haemagglutinin (HA)-tagged human Gab2 (human) (UniProt Q9UQC2); remark: listed apart in the source
molecule,measurement,setting,value
CrkL (from UniProt P46109 1-303),binding,[1],binds
Stathmin 1 (from UniProt P16949 1-149),binding,[2],binds
Casein kinase II α’ (CSNK2A2; CK2) (from UniProt P19784 1-350) (enzyme),binding,[3],binds
Crk adaptor (from UniProt P46108 1-304),binding,[1],binds
p85β subunit of PI3K (PIK3R2) (from UniProt O00459 1-728),binding,[4],binds
"Stathmin 2 (protein, UniProt Q93045 1-179) MAKTAMAYKEKMKELSMLSLICSCFYPEPRNINIYTYDDMEVKQINKRASGQAFELILKPPSPISEAPRTLASPKKKDLSLEEIQKKLEAAEERRKSQEAQVLKQLAEKREHEREVLQKALEENNNFSKMAEEKLILKMEQIKENREANLAAIIERLQEKERHAAEVRRNKELQVELSG",binding,[2],binds
"PIP1, an aspartyl protease (protein, UniProt P12273 29-146) QDNTRKIIIKNFDIPKSVRPNDEVTAVLAVQTELKECMVVKTYLISSIPLQGAFNYKYTACLCDDNPKTFYWDFYTNRTVQIAAVVDVIRELGICPDDAAVIPIKNNRFYTIEILKVE",binding,[2],binds
"SHC1 (protein, UniProt P29353 1-583) MDLLPPKPKYNPLRNESLSSLEEGASGSTPPEELPSPSASSLGPILPPLPGDDSPTTLCSFFPRMSNLRLANPAGGRPGSKGEPGRAADDGEGIVGAAMPDSGPLPLLQDMNKLSGGGGRRTRVEGGQLGGEEWTRHGSFVNKPTRGWLHPNDKVMGPGVSYLVRYMGCVEVLQSMRALDFNTRTQVTREAISLVCEAVPGAKGATRRRKPCSRPLSSILGRSNLKFAGMPITLTVSTSSLNLMAADCKQIIANHHMQSISFASGGDPDTAEYVAYVAKDPVNQRACHILECPEGLAQDVISTIGQAFELRFKQYLRNPPKLVTPHDRMAGFDGSAWDEEEEEPPDHQYYNDFPGKEPPLGGVVDMRLREGAAPGAARPTAPNAQTPSHLGATLPVGQPVGGDPEVRKQMPPPPPCPGRELFDDPSYVNVQNLDKARQAVGGAGPPNPAINGSAPRDLFDMKPFEDALRVPPPPQSVSMAEQLRGEPWFHGKLSRREAEALLQLNGDFLVRESTTTPGQYVLTGLQSGQPKHLLLVDPEGVVRTKDHRFESVSHLISYHMDNHLPIISAGSELCLQQPVERKL",binding,[5],binds
"SHC2 (protein, UniProt P98077 1-582) MTQGPGGRAPPAPPAPPEPEAPTTFCALLPRMPQWKFAAPGGFLGRGPAAARAAGASGGADPQPEPAGPGGVPALAAAVLGACEPRCAAPCPLPALSRCRGAGSRGSRGGRGAAGSGDAAAAAEWIRKGSFIHKPAHGWLHPDARVLGPGVSYVVRYMGCIEVLRSMRSLDFNTRTQVTREAINRLHEAVPGVRGSWKKKAPNKALASVLGKSNLRFAGMSISIHISTDGLSLSVPATRQVIANHHMPSISFASGGDTDMTDYVAYVAKDPINQRACHILECCEGLAQSIISTVGQAFELRFKQYLHSPPKVALPPERLAGPEESAWGDEEDSLEHNYYNSIPGKEPPLGGLVDSRLALTQPCALTALDQGPSPSLRDACSLPWDVGSTGTAPPGDGYVQADARGPPDHEEHLYVNTQGLDAPEPEDSPKKDLFDMRPFEDALKLHECSVAAGVTAAPLPLEDQWPSPPTRRAPVAPTEEQLRQEPWYHGRMSRRAAERMLRADGDFLVRDSVTNPGQYVLTGMHAGQPKHLLLVDPEGVVRTKDVLFESISHLIDHHLQNGQPIVAAESELHLRGVVSREP",binding,[5],binds
"SHIP2 (INPPL1) (enzyme, UniProt O15357 1-1258) MASACGAPGPGGALGSQAPSWYHRDLSRAAAEELLARAGRDGSFLVRDSESVAGAFALCVLYQKHVHTYRILPDGEDFLAVQTSQGVPVRRFQTLGELIGLYAQPNQGLVCALLLPVEGEREPDPPDDRDASDGEDEKPPLPPRSGSTSISAPTGPSSPLPAPETPTAPAAESAPNGLSTVSHDYLKGSYGLDLEAVRGGASHLPHLTRTLATSCRRLHSEVDKVLSGLEILSKVFDQQSSPMVTRLLQQQNLPQTGEQELESLVLKLSVLKDFLSGIQKKALKALQDMSSTAPPAPQPSTRKAKTIPVQAFEVKLDVTLGDLTKIGKSQKFTLSVDVEGGRLVLLRRQRDSQEDWTTFTHDRIRQLIKSQRVQNKLGVVFEKEKDRTQRKDFIFVSARKREAFCQLLQLMKNKHSKQDEPDMISVFIGTWNMGSVPPPKNVTSWFTSKGLGKTLDEVTVTIPHDIYVFGTQENSVGDREWLDLLRGGLKELTDLDYRPIAMQSLWNIKVAVLVKPEHENRISHVSTSSVKTGIANTLGNKGAVGVSFMFNGTSFGFVNCHLTSGNEKTARRNQNYLDILRLLSLGDRQLNAFDISLRFTHLFWFGDLNYRLDMDIQEILNYISRKEFEPLLRVDQLNLEREKHKVFLRFSEEEISFPPTYRYERGSRDTYAWHKQKPTGVRTNVPSWCDRILWKSYPETHIICNSYGCTDDIVTSDHSPVFGTFEVGVTSQFISKKGLSKTSDQAYIEFESIEAIVKTASRTKFFIEFYSTCLEEYKKSFENDAQSSDNINFLKVQWSSRQLPTLKPILADIEYLQDQHLLLTVKSMDGYESYGECVVALKSMIGSTAQQFLTFLSHRGEETGNIRGSMKVRVPTERLGTRERLYEWISIDKDEAGAKSKAPSVSRGSQEPRSGSRKPAFTEASCPLSRLFEEPEKPPPTGRPPAPPRAAPREEPLTPRLKPEGAPEPEGVAAPPPKNSFNNPAYYVLEGVPHQLLPPEPPSPARAPVPSATKNKVAITVPAPQLGHHRHPRVGEGSSSDEESGGTLPPPDFPPPPLPDSAIFLPPSLDPLPGPVVRGRGGAEARGPPPPKAHPRPPLPPGPSPASTFLGEVASGDDRSCSVLQMAKTLSEVDYAPAGPARSALLPGPLELQPPRGLPSDYGRPLSFPPPRIRESIQEDLAEEAPCLQGGRASGLGEAGMSAWLRAIGLERYEEGLVHNGWDDLEFLSDITEEDLEEAGVQDPAHKRLLLDTLQLSK",binding,[5],binds
